In PubChem BioAssay AID1347426 (Functional Genomics Laboratory (NCATS/FGL), 2020):
Out of some 31,000 sequences screened, about 1,400 (4.5%) were called active.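 Rule for the calls: active = median seed-adjusted z-score above 1 or below -1; inactive = the rest.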 Some of the results follow.

assay: Novel Modifiers of Survival Motor Neuron (SMN) Protein: Gene Identification via Genome-wide siRNA Screen; conditions: HEK293T SMN2-luciferase reporter, siRNA knockdown, 72 h; actives lie on both sides;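 note: luminescence tracks full-length SMN protein made from the SMN2 reporter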
How it was run: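 HEK293T cells stably expressing an SMN2 splicing/cDNA-luciferase reporter were reverse-transfected with a druggable-genome siRNA library and read by luminescence at 72 hours; hits defined by MAD score above 1.0 or below -1.0.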

| Sequence | median seed-adjusted z-score |
| --- | --- |
| CACCUACUGAUGACUCAAATT against ACY1 | inactive: -0.153 |
| AAACGGAGGCGGUACGAGATT against SYT5 | inactive: 0.704 |
| GAACCCGUGUAUCAGCUGATT against ANGPTL6 | inactive: 0 |
| GAUGAUUCGUUGGUAUCUATT against GRIA2 | active: -1.02 |
| GCAUGAACACUGACAUGGUTT against POGK | inactive: 0.938 |
| GCAAGAACCUGGUGCGCAATT against LRRC4B | inactive: 0.288 |
| CGGUUAGGCUGUGAGGAAATT against PDPK1 | inactive: 0.0807 |
| GAAGCUUACAGAUUCGAUATT against CNTNAP2 | inactive: -0.196 |
| GUCUAUGAAUUGGACAAGATT against PGAM1 | inactive: -0.234 |
| GGAAGUAUCAGAUCUUGAATT against CYFIP2 | inactive: -0.322 |
| GAGUUUAAGCGCAAGCAUATT against HSPA8 | inactive: 0.462 |
| GCUCUGUCACUGAAUACAATT against MPI | inactive: -0.526 |
| CGUCAAAAUCAGGACUGAATT against TAF9 | inactive: 0.829 |
| GGCCUACCGUAAGAAUGCATT against PHKA2 | inactive: 0.304 |
| GCAACCUUAUAAUAACGGUTT against RELN | inactive: 0.207 |
| CAUCUUAAGUGUUUUACAUTT against LMO4 | inactive: -0.067 |
| GGACUUACCUUCAACCAAUTT against RSF1 | inactive: 0 |
| GGAUCCUGUAAAUCCCUAUTT against MEST | inactive: -0.0503 |
| CCAAAAUGUUUCAUCCAAATT against UBE2B | inactive: 0.333 |
| AAGUAAAUCUGUAAACAGATT against CYP3A5 | inactive: 0.0516 |
| CAACAUCUCCGAGGGCGAATT against SEZ6L2 | inactive: -0.331 |
| GGUGAAGGAUAUAGCAAUATT against RYK | inactive: -0.446 |
| GUAUAGACAUGAUUGACAATT against ARNTL | inactive: 0.0838 |

| Sequence | median seed-adjusted z-score |
| --- | --- |
| CCGCAGUGAUCAACAAAGATT against ZFPM1 | inactive: -0.925 |
| CAGAUACUUUAGGACUCAATT against UGT2B4 | inactive: 0.0707 |
| CUCUAUAGCUUUUACUUCUTT against CNGA4 | inactive: 0.125 |
| GCUUAGCGGUGAAGAAGCATT against STK33 | inactive: -0.168 |
| GCUCCUCGUUUGUAGAAGATT against SLIT3 | inactive: -0.453 |
| AGCUUUUGAAGGUAAUUAATT against EMG1 | inactive: -0.0627 |
| GGCUUCACCUAAAAACGUATT against BRCA2 | inactive: 0 |
| CACCGGAUGUGGAGAACUATT against MYOC | inactive: 0.764 |
| GAGUCUAAAUCCUCCAGUUTT against DUSP27 | inactive: -0.162 |
| GCAUAUGCCCUGUUUUUCATT against TOX3 | inactive: -0.216 |
| CGUUCCGACAGAUCAAGGATT against DPP7 | inactive: -0.217 |
| CCAAAACCGUCGCAUGAAATT against HOXC4 | inactive: -0.0114 |
| GCAUCUUGAUCCUCCUGUATT against NRXN3 | inactive: 0.897 |
| UCCUAAAUGUGACCCGGUATT against ZMYND19 | inactive: 0.369 |
| GCGCGAUAACCUCCUCAUATT against ZAP70 | inactive: -0.674 |
| CCUCAUUUACUGUCCAACUTT against EFCAB4B | inactive: 0 |
| CACUAAACGAGGAUUCCUATT against YWHAH | inactive: -0.125 |
| GCUUAAUCCUGAUUAUCGATT against ITPR2 | inactive: 0 |
| CAUAGACUCUUACACCACATT against SC4MOL | inactive: -0.0194 |
| GUGCUGUACGUGUUGCUGCTT against NPBWR1 | inactive: 0.344 |
| GAAAUACGCAGAUGACAAATT against MCM8 | inactive: 0.279 |
| GGCCGAAUGUUUGCACCAATT against RPL4 | inactive: 0.573 |
| GAACUGUGCUCAGACCUCUTT against HSPA6 | inactive: 0.364 |

Exported with tabs: part of the list above.
Sequence	median seed-adjusted z-score
AAACGGAGGCGGUACGAGATT against SYT5	inactive: 0.704
GCUUAGCGGUGAAGAAGCATT against STK33	inactive: -0.168
GGCCGAAUGUUUGCACCAATT against RPL4	inactive: 0.573

Another view of some results above.
Sequence | median seed-adjusted z-score
CACCGGAUGUGGAGAACUATT against MYOC | inactive: 0.764
GCUUAAUCCUGAUUAUCGATT against ITPR2 | inactive: 0

The list goes on:

| Sequence | median seed-adjusted z-score |
| --- | --- |
| CGUUACCUUUUAAGCUUGATT against SOCS6 | inactive: 0.359 |
| GGACAGUAGUAGCUACAGUTT against PCDH7 | inactive: 0.192 |
| GGGUUAGACGGAUACAAGATT against LILRA2 | inactive: -0.103 |
| AGAUCUCCAUGGUCAGGAUTT against ACCN4 | inactive: -0.512 |
| GGAUGUCUGGUUCUCGUAATT against KLHL5 | inactive: 0.48 |
| GACAGUUCGUGAUGCUAUATT against PDHB | inactive: -0.478 |
| CGGUACUCAUCAUCGCGCATT against ABCB9 | inactive: 0.151 |
| GGAGCUUCAGGUUGUCCGATT against RPUSD3 | inactive: 0.303 |
| GGAUCGAAUUUUUGGAACATT against SC4MOL | inactive: -0.0194 |
| GGAUAUGCGUGAAUUUCGATT against ERCC4 | inactive: -0.00878 |
| CCCAGAUCACGUCCACCUUTT against GGTLC1 | inactive: -0.298 |
| AGAAUGACAGGGUCCAGAATT against OGFR | inactive: -0.565 |
| CCCUGAUAGAGAAACCCGATT against SIGLEC5 | inactive: -0.615 |
| CCUUCGAACAAAGAGUAGATT against MAP1LC3B | inactive: -0.0749 |
| GCCUAUUUCCGCAGAAACATT against FOXP4 | inactive: 0.588 |
| GGCUGAAGCUGACGAAAGATT against SNTG2 | inactive: 0.603 |
| GGAGACAACUAAGGGAUUATT against MOGAT3 | inactive: -0.383 |
| GGUUUGGAAUGUUCGAGUUTT against SLC25A1 | inactive: 0.252 |
| CCAAUGAUGUAUGAUCUAATT against UBE3A | inactive: 0.0949 |
| GCUUAUGAGUUUGUUCGUATT against NARG1L | inactive: 0.0121 |
| GGCUGAUCCUUUGCUAUGATT against CDC42BPB | inactive: -0.556 |
| GUUCUGCCCUCAUACCCUUTT against IL9R | active: -1.33 |
| ACAGCACUCACCAUCCUUATT against CHRNA10 | inactive: 0.521 |
